Reference: publication PMC8834516
Results are given in words; binding and its absence hold for the method and conditions named. Binding seen in cells or lysates may run through a third protein. Here binding means that the protein was enriched with, or labelled near, the bait; the list need not be complete.

T1: Transglutaminase-2 (mouse (endogenous in mouse brain)) (UniProt P21981)
T1 sequence: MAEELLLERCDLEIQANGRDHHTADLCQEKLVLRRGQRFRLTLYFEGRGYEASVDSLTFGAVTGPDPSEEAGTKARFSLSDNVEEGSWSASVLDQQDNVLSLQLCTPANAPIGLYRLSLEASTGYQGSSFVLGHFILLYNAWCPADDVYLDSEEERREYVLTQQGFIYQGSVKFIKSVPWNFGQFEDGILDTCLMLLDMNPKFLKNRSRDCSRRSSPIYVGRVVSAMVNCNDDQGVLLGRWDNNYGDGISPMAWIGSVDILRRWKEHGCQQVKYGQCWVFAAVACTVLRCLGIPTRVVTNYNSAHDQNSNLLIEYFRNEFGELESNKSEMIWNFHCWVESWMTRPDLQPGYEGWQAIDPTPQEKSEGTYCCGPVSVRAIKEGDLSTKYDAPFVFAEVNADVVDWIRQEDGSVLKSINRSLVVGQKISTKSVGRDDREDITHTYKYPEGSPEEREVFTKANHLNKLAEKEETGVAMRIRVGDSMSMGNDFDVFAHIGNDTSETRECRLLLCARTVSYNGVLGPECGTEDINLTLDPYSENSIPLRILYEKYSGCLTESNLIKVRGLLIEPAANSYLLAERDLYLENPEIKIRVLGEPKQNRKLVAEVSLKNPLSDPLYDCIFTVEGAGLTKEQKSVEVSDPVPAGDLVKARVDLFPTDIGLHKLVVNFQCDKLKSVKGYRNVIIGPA


Target: T1, Transglutaminase-2 (mouse (endogenous in mouse brain))
Experiment: affinity purification with mass spectrometry; TG2 immunoprecipitated from total brain homogenates of 18-month-old WT and APP23 mice with anti-TG2 antibody IA12 crosslinked to protein A/G magnetic beads, 22 h at 4 °C; IP lysis buffer 25 mM Tris pH 7.4, 150 mM NaCl, 1 mM EDTA, 1% NP40, 5% glycerol; on-bead trypsin digest, SWATH MS; TG2−/− cohorts as background, z-test p ≤ 0.05, n = 5 per cohort

binding	Binder
binds	Ras suppressor protein 1 (protein, UniProt Q01730 1-277) MSKSLKKLVEESREKNQPEVDMSDRGISSMLDVNGLFSLAHITQLVLSHNKLTTVPPNVAELKNLEVLNFFNNQIEELPTQISSLQKLKHLNLGMNRLNTLPRGFGSSRLLEVLELTYNNLNEHSLPGNFFYLTTLRALYLSDNDFEILPPDIGKLTKLQILSLRDNDLISLPKEIGELTQLKELHIQGNRLTVLPPELGNLDLTGQKQVFKAENNPWVTPIADQFQLGVSHVFEYIRSETYKYLYGRHMQANPEPPKKNNDKSKKISRKPLAAKNK
binds	Insulin-degrading enzyme (protein, UniProt Q9JHR7 1-1019) MRNGLVWLLHPALPGTLRSILGARPPPAKRLCGFPKQTYSTMSNPAIQRIEDQIVKSPEDKREYRGLELANGIKVLLISDPTTDKSSAALDVHIGSLSDPPNIPGLSHFCEHMLFLGTKKYPKENEYSQFLSEHAGSSNAFTSGEHTNYYFDVSHEHLEGALDRFAQFFLCPLLDASCKDREVNAVDSEHEKNVMNDAWRLFQLEKATGNPKHPFSKFGTGNKYTLETRPNQEGIDVREELLKFHSTYYSSNLMAICVLGRESLDDLTNLVVKLFSEVENKNVPLPEFPEHPFQEEHLRQLYKIVPIKDIRNLYVTFPIPDLQQYYKSNPGYYLGHLIGHEGPGSLLSELKSKGWVNTLVGGQKEGARGFMFFIINVDLTEEGLLHVEDIILHMFQYIQKLRAEGPQEWVFQECKDLNAVAFRFKDKERPRGYTSKIAGKLHYYPLNGVLTAEYLLEEFRPDLIDMVLDKLRPENVRVAIVSKSFEGKTDRTEQWYGTQYKQEAIPEDVIQKWQNADLNGKFKLPTKNEFIPTNFEILSLEKDATPYPALIKDTAMSKLWFKQDDKFFLPKACLNFEFFSPFAYVDPLHCNMAYLYLELLKDSLNEYAYAAELAGLSYDLQNTIYGMYLSVKRYNDKQPILLKKITEKMATFEIDKKRFEIIKEAYMRSLNNFRAEQPHQHAMYYLRLLMTEVAWTKDELKEALDDVTLPRLKAFIPQLLSRLHIEALLHGNITKQAALGVMQMVEDTLIEHAHTKPLLPSQLVRYREVQLPDRGWFVYQQRNEVHNNCGIEIYYQTDMQSTSENMFLELFCQIISEPCFNTLRTKEQLGYIVFSGPRRANGIQGLRFIIQSEKPPHYLESRVEAFLITMEKAIEDMTEEAFQKHIQALAIRRLDKPKKLSAECAKYWGEIISQQYNYDRDNIEVAYLKTLTKDDIIRFYQEMLAVDAPRRHKVSVHVLAREMDSCPVVGEFPSQNDINLSEAPPLPQPEVIHNMTEFKRGLPLFPLVKPHINFMAAKL
binds	Keratin, type II cytoskeletal 1 (protein, UniProt P04104 1-637) MSLQCSSRSLCRGGGGSRNFSSGSAGLVSFQRRSTSSSMRRSGGGGGGRFSGGGFCGSSGSGFGSKSLMNLGGGRSISKSVAGGGGSFCGGFGGGSYGGGGFGGGSYGGGGFGGGSFGGGGFGGSGFGGGLGGGGGFGSGGGFGGGRFGSMGPVCPPGGIQEVTINQSLLQPLNVEVDPQIQKVKSQEREQIKSLNDKFASFIDKVRFLEQQNQVLQTKWELLQQVDTTTRTQNLDPFFENYISILRRKVDSLKSDQSRMDSELKNMQDLVEEYRTKYEDEINKRTNAENEFVTIKKDVDSAYMTKVELQAKADALQQDIDFFSALYQMEMSQMQTQISETNVVLSMDNNRSLDLDGIISEVKAQYDSICQRSKAEAETFYQSKYEELQITAGKHGDSVRNTKMEISELNRMIQRLRSEIDGCKKQISQIQQNINDAEQRGEKALKDAQNKLNEIEDALSQCKEDLARLLRDFQELMNTKLALDMEIATYKKLLEGEEIRMSGECTPNVSVSVSTSHTSMSGSSSRGGGSGGGRYGGGGSYGGGSGGGSYGGSSGGGGSGGSYGGGSGGGSYGGGSGGGSSGSHRGGSGGGGGSSGGSYGGSSGGGRGGSSSGGGGVKSSGSSTVKFVSTSYSRGTK
binds	Long-chain-fatty-acid—CoA ligase ACSBG1 (protein, UniProt Q99PU5 1-721) MPRGSEAGYCCLSRDSNMPDSRDDQQQGASLGTSQDNSQTSSLIDGQTLSKESPSHGLELSAPEKARAASLDGAEEALWTTRADGRVRLRLEPFCTQRPYTVHQMFYEALDKYGNLSALGFKRKDKWERISYYQYYLIARKVAKGFLKLGLERAHSVAILGFNSPEWFFSAVGTVFAGGIVTGIYTTSSPEACQYISHDCRANVIVVDTQKQLEKILKIWKDLPHLKAVVIYQEPPPKKMANVYTMEELIELGQEVPEEALDAIIDTQQPNQCCVLVYTSGTTGNPKGVMLSQDNITWTARYGSQAGDIQPAEVQQEVVVSYLPLSHIAAQIYDLWTGIQWGAQVCFADPDALKGTLVNTLREVEPTSHMGVPRVWEKIMERIQEVAAQSGFIRRKMLLWAMSVTLEQNLTCPSNDLKPFTSRLADYLVLARVRQALGFAKCQKNFYGAAPMTAETQRFFLGLNIRLYAGYGLSESTGPHFMSSPYNYRLYSSGRVVPGCRVKLVNQDADGIGEICLWGRTIFMGYLNMEDKTCEAIDSEGWLHTGDMGRLDADGFLYITGRLKELIITAGGENVPPVPIEEAVKMELPIISSAMLIGDQRKFLSMLLTLKCTLDPETSEPTDSLTEQAVEFCQRVGSKASTVSEIVGQRDEAVYQAIHEGIQRVNANAAARPYHIQKWAILQRDFSISGGELGPTMKLKRLTVLEKYKDIIDSFYQEQKQ
binds	Copine-5 (protein, UniProt Q8JZW4 1-593) MEQPEDMASLSEFDSLAGSIPATKVEITVSCRNLLDKDMFSKSDPLCVMYTQGMENKQWREFGRTEVIDNTLNPDFVRKFIVDYFFEEKQNLRFDLYDVDSKSPDLSKHDFLGQAFCTLGEIVGSSGSRLEKPLTIGTFSLNSRTGKPMPAVSNGGVPGKKCGTIILSAEELSNCRDVATMQFCANKLDKKDFFGKSDPFLVFYRSNEDGTFTICHKTEVMKNTLNPVWQTFSIPVRALCNGDYDRTIKVEVYDWDRDGSHDFIGEFTTSYRELARGQSQFNIYEVINPKKKMKKKKYVNSGTVTLLSFAVESESTFLDYIKGGTQINFTVAIDFTASNGNPSQSTSLHYMSPYQLNAYALALTAVGEIIQHYDSDKMFPALGFGAKLPPDGRVSHEFPLNGNQENPSCCGIDGILEAYHSSLRTVQLYGPTNFAPVVTHVARNAAAVQDGSQYSVLLIITDGVISDMAQTKEAIVNAAKLPMSIIIVGVGQAEFDAMVELDGDDVRISSRGKLAERDIVQFVPFRDYVDRTGNHVLSMARLARDVLAEIPDQLVSYMKAQGIRPRPPPAAPAQSPPQSPAHSPPGSPVHTHI
binds	Astrotactin-1 (protein, UniProt Q61137 22-1302) TAAGDVDPSKELECKLKSITVSALPFLRENDLSIMHSPSASEPKLLFSVRNDFPGEMVVVDDLENTELPYFVLEISGNTEDIPLVRWRQQWLENGTLLFHIHHQDGAPSLPGQDPTEEPQHESAEEELRILHISVMGGMIALLLSILCLVMILYTRRRWCKRRRVPQPQKSASAEAANEIHYIPSVLIGGHGRESLRNARVQGHNSSGTLSIRETPILDGYEYDITDLRHHLQRECMNGGEDFASQVTRTLDSLQGCNEKSGMDLTPGSDNAKLSLMNKYKDNIIATSPVDSNHQQATLLSHTSSSQRKRINNKARAGSAFLNPEGDSSTEAENDPQLTFYTDPSRSRRRSRVGSPRSPVNKTTLTLISVTSCVIGLVCSSHVSCPLVVKITLHVPEHLIADGSRFILLEGSQLDASDWLNPAQVVLFSQQNSSGPWAMDLCARRLLDPCEHQCDPETGRREHRAAGECLCYEGYMKDPVHKHLCIRNEWGTNQGPWPYTIFQRGFDLVLGEQPSDKIFRFTYTLGEGMWLPLSKSFVIPPAELAINPSAKCKTDMTVMEDAVEVREELMTSSSFDSLEVLLDSFGPVRDCSKDNGGCSKNFRCISDRKLDSTGCVCPSGLSPMKDSSGCYDRHIGVDCSDGFNGGCEQLCLQQMAPFPEDPTLYNILMFCGCIEDYKLGVDGRSCQLVTETCPEGGDCGESREVPMNQTLFGEMFFGYNNQSKEVATGQVLKGTFRQNNFARGLDQQLPDGLVVASVPLENQCLEEISEPTPDPDFLTGMVNFSEVSGYPVLQHWKVRSVMYHIKLNQAAISQAFSNALHSLDGATSRADFVALLDQFGNHYIQEAVYGFEESCSIWYPNKQVQRRLWLEYEDISKGNSPSDESEERERDPKVLTFPEYIASLSDSGTKRMAAGVRMECQSKGRCPSSCPLCHVTSSPETPAEPVLLEVTRASPIYELVTNNQTQRLLQEATMSSLWCSGTGDVIEDWCRCDSTAFGADGLPTCAPLPQPVLRLSTVHEPSSNLVVLEWEHSEPPIGVQIVDYLIRQEKVTDRMDHSKVETETVLSFVDDIISGAKAPCAMPSQVPDKQLTTISLIIRCLEPDTIYMFTLWGVDNTGRRSRPSDVIVKTPCPVVDDVKAQEIADKIYNLFNGYTSGKEQQTAYNTLLDLGSPTLHRVLYHYNQHYESFGEFTWRCEDELGPRKAGLILSQLGDLSSWCNGLLQEPKISLRRGSLKYLGCRYSEIKPYGLDWSELSRDLRKTCEEQTLSVPYNDYGDSKDI
binds	Serpin B6 (protein, UniProt Q60854 1-378) MDPLQEANGTFALNLLKILGEDSSKNVFLSPMSISSALAMVFMGAKGTTASQMAQALALDKCSGNGGGDVHQGFQSLLTEVNKTGTQYLLRTANRLFGDKTCDLLASFKDSCLKFYEAELEELDFQGATEESRQHINTWVAKKTEDKIKEVLSPGTVNSDTSLVLVNAIYFKGNWEKQFNKEHTREMPFKVSKNEEKPVQMMFKKSTFKMTYIGEIFTKILLLPYVSSELNMIIMLPDEHVELSTVEKEVTYEKFIEWTRLDKMDEEEVEVFLPKFKLEENYNMNDALYKLGMTDAFGGRADFSGMSSKQGLFLSKVVHKAFVEVNEEGTEAAAATAGMMTVRCMRFTPRFCADHPFLFFIHHVKTNGILFCGRFSSP
